The source of these data is US20200009248A1, “TARGETING TGR5 TO TREAT DISEASE” (Mayo Foundation for Medical Education and Research, priority 2014, published 2020).

Chains of the proteins cited; added tags and fusions are not shown. Residues count along the entry.
UniProt P63095, residues 2-394: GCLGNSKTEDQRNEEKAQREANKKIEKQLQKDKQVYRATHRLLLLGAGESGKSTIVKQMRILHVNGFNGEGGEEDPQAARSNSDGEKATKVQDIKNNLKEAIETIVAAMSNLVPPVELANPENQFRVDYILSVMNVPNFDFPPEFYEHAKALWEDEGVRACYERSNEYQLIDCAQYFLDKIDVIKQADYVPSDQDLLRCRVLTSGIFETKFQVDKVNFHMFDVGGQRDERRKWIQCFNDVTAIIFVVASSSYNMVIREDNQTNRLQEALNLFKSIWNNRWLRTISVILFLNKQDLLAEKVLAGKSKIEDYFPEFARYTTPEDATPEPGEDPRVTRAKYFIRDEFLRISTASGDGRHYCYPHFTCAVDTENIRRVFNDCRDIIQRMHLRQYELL

No constants are given. Whether binding was seen depends on the method and setting. Some entries that bind do so weakly or less than the wild type.

This assay has as its target Gαs proteins (rat) (UniProt P63095). The experiment in a line: immunofluorescence confocal co-staining of liver sections of PCK rats, with or without oleanolic acid.

B1: TGR5 (receptor, rat, UniProt Q80T02 1-329, looked up)
chain: MMSHNTTELSAIPRGVQELSLVLASLIVIANLLLALGIVLDRHLRSPPAGCFFLSLLLAGLLTGLALPTLPGLWNRSHQGYWSCLLLHLAPNFCFLSLLANLLLVHGERYMAVLQPLRPHGSVRLALFLTWISSLLFASLPALGWNHWSPGANCSSQAIFPAPYLYLEVYGLLLPAVGATALLSVRVLATAHHQLREIRRLERAVCRDAPSTLARALTWRQARAQAGATLLFLLCWGPYVATLLLSVLAYERRPPLGPVTLLSLISLGSASAAVVPVAMGLGDQRYTAPWRTAAQRWLQVLRGRPKRANPGPSTAYHSSSQCSTDLDLN
Take B1: the binding entry is “binds”.
